Values of other authors as cited in article PMC7017409, “Synthetic Approaches for Piperidone-Based Templates as Scaffolds to Access Chirally Enriched Donepezil Analogues” (ACS Omega, 2020).

Conditions: aqueous solution at 37 °C; cited from earlier work

For `COc1cc2c(cc1OC)C(=O)C(CC1CCN(Cc3ccccc3)CC1)C2` (stereo not shown) [donepezil 1, donepezil], the racemization half-life is given as 78 h.
